No constants are given. Whether binding was seen depends on the method and setting. In cells and extracts the contact can be indirect. Some binding calls cover weakened binding; strength is not graded here.
Target: SMAD Family Member 4 (SMAD4) (human (endogenous in human kidney cell lines)) (UniProt Q13485)
Test: co-IP; 200 µg total protein of cell lysate incubated with anti-SMAD4 antibody, precipitated with Protein A/G magnetic beads overnight at 4 °C; eluates blotted with anti-SNAIL; cells untreated (control) or treated with 20 mM lactate or 200 µM nicotinamide

Amino acid sequences for entries named in this document (tags omitted).
UniProt Q13485: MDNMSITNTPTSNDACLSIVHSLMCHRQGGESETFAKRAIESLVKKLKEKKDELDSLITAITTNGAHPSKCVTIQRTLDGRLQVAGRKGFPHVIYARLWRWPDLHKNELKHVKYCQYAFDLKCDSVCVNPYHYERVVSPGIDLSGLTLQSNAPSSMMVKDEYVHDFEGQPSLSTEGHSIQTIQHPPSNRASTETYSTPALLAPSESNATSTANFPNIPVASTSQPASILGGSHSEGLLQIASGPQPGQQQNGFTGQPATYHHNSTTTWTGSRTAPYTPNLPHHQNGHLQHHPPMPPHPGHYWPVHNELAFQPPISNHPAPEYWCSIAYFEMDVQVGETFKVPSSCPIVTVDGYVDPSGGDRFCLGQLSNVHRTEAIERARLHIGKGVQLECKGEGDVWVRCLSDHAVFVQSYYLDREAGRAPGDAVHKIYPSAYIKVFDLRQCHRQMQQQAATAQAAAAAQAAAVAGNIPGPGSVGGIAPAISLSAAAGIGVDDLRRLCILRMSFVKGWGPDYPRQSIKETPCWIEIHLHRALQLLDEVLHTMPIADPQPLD
UniProt O95863: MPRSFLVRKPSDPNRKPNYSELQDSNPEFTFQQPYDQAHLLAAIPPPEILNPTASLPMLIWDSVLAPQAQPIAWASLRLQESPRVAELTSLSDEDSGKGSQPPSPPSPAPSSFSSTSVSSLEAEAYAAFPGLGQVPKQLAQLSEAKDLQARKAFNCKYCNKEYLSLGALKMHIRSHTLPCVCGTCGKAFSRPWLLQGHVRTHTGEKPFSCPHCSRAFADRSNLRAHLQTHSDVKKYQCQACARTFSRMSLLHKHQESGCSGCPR

Zinc finger protein SNAI1 (SNAIL) (from UniProt O95863 1-264)
binding: binds
